Drawing on PMC6739308, this text covers binding for 2 molecules.

Positions count from the first letter of the chain named. No constants are given. Whether binding was seen depends on the method and setting. In cells and extracts the contact can be indirect. Some results given as binding are weak or reduced against the parent protein; the word gives no strength.

One assay has as its target T1, F-SMG7-K66E, transfected (UniProt Q92540).
T1 sequence: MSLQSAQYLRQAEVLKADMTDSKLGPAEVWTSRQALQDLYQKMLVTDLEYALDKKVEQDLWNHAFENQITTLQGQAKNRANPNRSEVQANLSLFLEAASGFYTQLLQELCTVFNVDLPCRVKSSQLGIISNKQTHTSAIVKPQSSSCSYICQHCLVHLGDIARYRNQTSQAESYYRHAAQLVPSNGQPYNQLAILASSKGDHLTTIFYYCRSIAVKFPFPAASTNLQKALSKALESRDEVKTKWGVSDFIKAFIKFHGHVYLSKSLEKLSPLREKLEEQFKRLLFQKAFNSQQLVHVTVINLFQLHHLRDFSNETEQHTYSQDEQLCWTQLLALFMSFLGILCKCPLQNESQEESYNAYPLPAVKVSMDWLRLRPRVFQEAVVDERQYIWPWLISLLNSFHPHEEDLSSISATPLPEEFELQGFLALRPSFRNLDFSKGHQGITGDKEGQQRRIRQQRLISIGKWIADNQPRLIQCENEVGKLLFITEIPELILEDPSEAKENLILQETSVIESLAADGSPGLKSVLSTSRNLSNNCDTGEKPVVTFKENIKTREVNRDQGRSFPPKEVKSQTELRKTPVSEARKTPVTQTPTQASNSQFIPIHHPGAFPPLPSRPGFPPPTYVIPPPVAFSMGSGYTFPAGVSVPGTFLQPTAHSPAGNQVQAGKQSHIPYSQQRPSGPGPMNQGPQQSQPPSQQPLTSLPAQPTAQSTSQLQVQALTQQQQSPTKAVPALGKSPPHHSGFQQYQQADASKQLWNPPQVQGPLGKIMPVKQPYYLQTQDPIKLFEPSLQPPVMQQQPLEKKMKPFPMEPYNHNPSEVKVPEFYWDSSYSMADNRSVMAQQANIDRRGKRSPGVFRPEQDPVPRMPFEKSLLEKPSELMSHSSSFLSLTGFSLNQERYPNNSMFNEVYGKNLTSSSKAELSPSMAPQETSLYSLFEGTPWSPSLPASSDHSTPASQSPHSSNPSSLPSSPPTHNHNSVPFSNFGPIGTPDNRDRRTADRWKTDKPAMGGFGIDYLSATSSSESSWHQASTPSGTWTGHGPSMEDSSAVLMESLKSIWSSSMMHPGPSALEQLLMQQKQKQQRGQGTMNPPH
As to the kind of experiment: co-IP; α-Flag (SMG7) immunoprecipitates from cells expressing F-SMG7 or F-SMG7-K66E, western blot; cells not given.

In assay [1] the target is T2, F-SMG7 wild type, transfected (UniProt Q92540).
T2 sequence: T1 sequence with E66K
The assay is described as above.

B1: UPF1, endogenous (protein, UniProt Q92900 1-1129)
chain: MSVEAYGPSSQTLTFLDTEEAELLGADTQGSEFEFTDFTLPSQTQTPPGGPGGPGGGGAGGPGGAGAGAAAGQLDAQVGPEGILQNGAVDDSVAKTSQLLAELNFEEDEEDTYYTKDLPIHACSYCGIHDPACVVYCNTSKKWFCNGRGNTSGSHIVNHLVRAKCKEVTLHKDGPLGETVLECYNCGCRNVFLLGFIPAKADSVVVLLCRQPCASQSSLKDINWDSSQWQPLIQDRCFLSWLVKIPSEQEQLRARQITAQQINKLEELWKENPSATLEDLEKPGVDEEPQHVLLRYEDAYQYQNIFGPLVKLEADYDKKLKESQTQDNITVRWDLGLNKKRIAYFTLPKTDSGNEDLVIIWLRDMRLMQGDEICLRYKGDLAPLWKGIGHVIKVPDNYGDEIAIELRSSVGAPVEVTHNFQVDFVWKSTSFDRMQSALKTFAVDETSVSGYIYHKLLGHEVEDVIIKCQLPKRFTAQGLPDLNHSQVYAVKTVLQRPLSLIQGPPGTGKTVTSATIVYHLARQGNGPVLVCAPSNIAVDQLTEKIHQTGLKVVRLCAKSREAIDSPVSFLALHNQIRNMDSMPELQKLQQLKDETGELSSADEKRYRALKRTAERELLMNADVICCTCVGAGDPRLAKMQFRSILIDESTQATEPECMVPVVLGAKQLILVGDHCQLGPVVMCKKAAKAGLSQSLFERLVVLGIRPIRLQVQYRMHPALSAFPSNIFYEGSLQNGVTAADRVKKGFDFQWPQPDKPMFFYVTQGQEEIASSGTSYLNRTEAANVEKITTKLLKAGAKPDQIGIITPYEGQRSYLVQYMQFSGSLHTKLYQEVEIASVDAFQGREKDFIILSCVRANEHQGIGFLNDPRRLNVALTRARYGVIIVGNPKALSKQPLWNHLLNYYKEQKVLVEGPLNNLRESLMQFSKPRKLVNTINPGARFMTTAMYDAREAIIPGSVYDRSSQGRPSSMYFQTHDQIGMISAGPSHVAAMNIPIPFNLVMPPMPPPGYFGQANGPAAGRGTPKGKTGRGGRQKNRFGLPGPSQTNLPNSQASQDVASQPFSQGALTQGYISMSQPSQMSQPGLSQPELSQDSYLGDEFKSQIDVALSQDSTYQGERAYQHGGVTGLSQY
Regarding B1, the binding result in the assay with F-SMG7-K66E, transfected is reported as “no binding”; in assay [1] it was “binds”.

B2: SMG5, endogenous (protein, UniProt Q9UPR3 1-1016)
chain: MSQGPPTGESSEPEAKVLHTKRLYRAVVEAVHRLDLILCNKTAYQEVFKPENISLRNKLRELCVKLMFLHPVDYGRKAEELLWRKVYYEVIQLIKTNKKHIHSRSTLECAYRTHLVAGIGFYQHLLLYIQSHYQLELQCCIDWTHVTDPLIGCKKPVSASGKEMDWAQMACHRCLVYLGDLSRYQNELAGVDTELLAERFYYQALSVAPQIGMPFNQLGTLAGSKYYNVEAMYCYLRCIQSEVSFEGAYGNLKRLYDKAAKMYHQLKKCETRKLSPGKKRCKDIKRLLVNFMYLQSLLQPKSSSVDSELTSLCQSVLEDFNLCLFYLPSSPNLSLASEDEEEYESGYAFLPDLLIFQMVIICLMCVHSLERAGSKQYSAAIAFTLALFSHLVNHVNIRLQAELEEGENPVPAFQSDGTDEPESKEPVEKEEEPDPEPPPVTPQVGEGRKSRKFSRLSCLRRRRHPPKVGDDSDLSEGFESDSSHDSARASEGSDSGSDKSLEGGGTAFDAETDSEMNSQESRSDLEDMEEEEGTRSPTLEPPRGRSEAPDSLNGPLGPSEASIASNLQAMSTQMFQTKRCFRLAPTFSNLLLQPTTNPHTSASHRPCVNGDVDKPSEPASEEGSESEGSESSGRSCRNERSIQEKLQVLMAEGLLPAVKVFLDWLRTNPDLIIVCAQSSQSLWNRLSVLLNLLPAAGELQESGLALCPEVQDLLEGCELPDLPSSLLLPEDMALRNLPPLRAAHRRFNFDTDRPLLSTLEESVVRICCIRSFGHFIARLQGSILQFNPEVGIFVSIAQSEQESLLQQAQAQFRMAQEEARRNRLMRDMAQLRLQLEVSQLEGSLQQPKAQSAMSPYLVPDTQALCHHLPVIRQLATSGRFIVIIPRTVIDGLDLLKKEHPGARDGIRYLEAEFKKGNRYIRCQKEVGKSFERHKLKRQDADAWTLYKILDSCKQLTLAQGAGEEDPSGMVTIITGLPLDNPSVLSGPMQAALQAAAHASVDIKNVLDFYKQWKEIG
Turning to B2, the binding result in the assay with F-SMG7-K66E, transfected is “binds”; in assay [1], “binds”.
